Paper PMC6763788

Amino acid sequences for entries named in this document (tags omitted).
UniProt Q06330: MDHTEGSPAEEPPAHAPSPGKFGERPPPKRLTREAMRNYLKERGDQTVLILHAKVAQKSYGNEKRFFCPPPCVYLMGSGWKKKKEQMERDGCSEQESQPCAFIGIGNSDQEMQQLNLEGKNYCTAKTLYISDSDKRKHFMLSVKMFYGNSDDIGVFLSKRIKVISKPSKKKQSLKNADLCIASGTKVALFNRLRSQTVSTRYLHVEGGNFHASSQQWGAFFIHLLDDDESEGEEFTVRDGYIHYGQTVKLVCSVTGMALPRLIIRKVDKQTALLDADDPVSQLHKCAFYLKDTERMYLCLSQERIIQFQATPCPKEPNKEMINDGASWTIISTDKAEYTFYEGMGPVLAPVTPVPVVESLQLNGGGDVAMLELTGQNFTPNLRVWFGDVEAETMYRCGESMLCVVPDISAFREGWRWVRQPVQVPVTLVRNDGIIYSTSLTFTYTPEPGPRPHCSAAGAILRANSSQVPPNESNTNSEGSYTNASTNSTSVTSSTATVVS
UniProt P12814: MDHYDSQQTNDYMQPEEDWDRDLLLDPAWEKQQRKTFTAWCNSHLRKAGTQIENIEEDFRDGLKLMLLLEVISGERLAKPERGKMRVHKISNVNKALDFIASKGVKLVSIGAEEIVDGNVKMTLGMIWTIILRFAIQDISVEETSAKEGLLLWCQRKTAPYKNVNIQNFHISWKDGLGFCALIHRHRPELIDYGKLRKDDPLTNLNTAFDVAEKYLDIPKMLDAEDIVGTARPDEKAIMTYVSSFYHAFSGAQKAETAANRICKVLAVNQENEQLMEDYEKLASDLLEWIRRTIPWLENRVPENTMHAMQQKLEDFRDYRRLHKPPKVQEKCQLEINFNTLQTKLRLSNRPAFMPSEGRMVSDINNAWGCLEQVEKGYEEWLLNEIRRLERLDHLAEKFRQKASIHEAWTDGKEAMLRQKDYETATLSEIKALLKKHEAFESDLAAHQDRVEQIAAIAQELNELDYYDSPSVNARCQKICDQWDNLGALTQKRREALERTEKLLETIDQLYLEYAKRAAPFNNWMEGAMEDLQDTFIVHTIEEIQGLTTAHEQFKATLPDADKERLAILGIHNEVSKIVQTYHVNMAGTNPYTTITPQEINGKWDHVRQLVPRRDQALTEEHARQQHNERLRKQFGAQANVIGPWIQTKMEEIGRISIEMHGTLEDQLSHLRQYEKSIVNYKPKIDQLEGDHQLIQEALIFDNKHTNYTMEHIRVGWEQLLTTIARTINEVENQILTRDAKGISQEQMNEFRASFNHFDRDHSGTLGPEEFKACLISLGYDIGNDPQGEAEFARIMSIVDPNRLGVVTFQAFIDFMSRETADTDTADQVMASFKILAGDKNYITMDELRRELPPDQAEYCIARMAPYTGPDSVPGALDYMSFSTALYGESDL
UniProt Q9BQE3: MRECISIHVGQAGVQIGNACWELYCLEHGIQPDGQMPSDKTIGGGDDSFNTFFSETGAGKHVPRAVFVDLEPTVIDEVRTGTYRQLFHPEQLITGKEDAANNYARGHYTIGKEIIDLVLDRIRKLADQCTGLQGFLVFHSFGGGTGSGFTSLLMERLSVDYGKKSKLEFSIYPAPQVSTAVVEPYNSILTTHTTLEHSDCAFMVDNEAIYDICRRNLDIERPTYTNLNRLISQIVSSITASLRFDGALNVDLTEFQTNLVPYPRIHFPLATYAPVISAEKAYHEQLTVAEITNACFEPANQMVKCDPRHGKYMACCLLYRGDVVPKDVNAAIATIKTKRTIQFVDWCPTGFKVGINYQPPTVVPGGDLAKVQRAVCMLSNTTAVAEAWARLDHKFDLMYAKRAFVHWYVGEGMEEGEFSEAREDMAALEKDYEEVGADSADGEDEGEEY
UniProt Q13509: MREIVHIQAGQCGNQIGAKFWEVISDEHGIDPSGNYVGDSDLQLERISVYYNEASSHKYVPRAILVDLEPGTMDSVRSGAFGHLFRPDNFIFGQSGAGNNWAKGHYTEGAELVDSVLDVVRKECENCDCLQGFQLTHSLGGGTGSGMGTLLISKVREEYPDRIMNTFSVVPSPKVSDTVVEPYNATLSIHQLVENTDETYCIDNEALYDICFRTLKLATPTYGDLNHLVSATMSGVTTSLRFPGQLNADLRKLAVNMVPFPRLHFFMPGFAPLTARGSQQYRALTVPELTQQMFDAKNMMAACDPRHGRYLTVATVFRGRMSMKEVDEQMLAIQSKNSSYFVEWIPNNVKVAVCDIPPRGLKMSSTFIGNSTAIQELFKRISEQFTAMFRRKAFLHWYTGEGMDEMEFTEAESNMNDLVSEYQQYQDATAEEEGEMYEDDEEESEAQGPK
UniProt Q14999: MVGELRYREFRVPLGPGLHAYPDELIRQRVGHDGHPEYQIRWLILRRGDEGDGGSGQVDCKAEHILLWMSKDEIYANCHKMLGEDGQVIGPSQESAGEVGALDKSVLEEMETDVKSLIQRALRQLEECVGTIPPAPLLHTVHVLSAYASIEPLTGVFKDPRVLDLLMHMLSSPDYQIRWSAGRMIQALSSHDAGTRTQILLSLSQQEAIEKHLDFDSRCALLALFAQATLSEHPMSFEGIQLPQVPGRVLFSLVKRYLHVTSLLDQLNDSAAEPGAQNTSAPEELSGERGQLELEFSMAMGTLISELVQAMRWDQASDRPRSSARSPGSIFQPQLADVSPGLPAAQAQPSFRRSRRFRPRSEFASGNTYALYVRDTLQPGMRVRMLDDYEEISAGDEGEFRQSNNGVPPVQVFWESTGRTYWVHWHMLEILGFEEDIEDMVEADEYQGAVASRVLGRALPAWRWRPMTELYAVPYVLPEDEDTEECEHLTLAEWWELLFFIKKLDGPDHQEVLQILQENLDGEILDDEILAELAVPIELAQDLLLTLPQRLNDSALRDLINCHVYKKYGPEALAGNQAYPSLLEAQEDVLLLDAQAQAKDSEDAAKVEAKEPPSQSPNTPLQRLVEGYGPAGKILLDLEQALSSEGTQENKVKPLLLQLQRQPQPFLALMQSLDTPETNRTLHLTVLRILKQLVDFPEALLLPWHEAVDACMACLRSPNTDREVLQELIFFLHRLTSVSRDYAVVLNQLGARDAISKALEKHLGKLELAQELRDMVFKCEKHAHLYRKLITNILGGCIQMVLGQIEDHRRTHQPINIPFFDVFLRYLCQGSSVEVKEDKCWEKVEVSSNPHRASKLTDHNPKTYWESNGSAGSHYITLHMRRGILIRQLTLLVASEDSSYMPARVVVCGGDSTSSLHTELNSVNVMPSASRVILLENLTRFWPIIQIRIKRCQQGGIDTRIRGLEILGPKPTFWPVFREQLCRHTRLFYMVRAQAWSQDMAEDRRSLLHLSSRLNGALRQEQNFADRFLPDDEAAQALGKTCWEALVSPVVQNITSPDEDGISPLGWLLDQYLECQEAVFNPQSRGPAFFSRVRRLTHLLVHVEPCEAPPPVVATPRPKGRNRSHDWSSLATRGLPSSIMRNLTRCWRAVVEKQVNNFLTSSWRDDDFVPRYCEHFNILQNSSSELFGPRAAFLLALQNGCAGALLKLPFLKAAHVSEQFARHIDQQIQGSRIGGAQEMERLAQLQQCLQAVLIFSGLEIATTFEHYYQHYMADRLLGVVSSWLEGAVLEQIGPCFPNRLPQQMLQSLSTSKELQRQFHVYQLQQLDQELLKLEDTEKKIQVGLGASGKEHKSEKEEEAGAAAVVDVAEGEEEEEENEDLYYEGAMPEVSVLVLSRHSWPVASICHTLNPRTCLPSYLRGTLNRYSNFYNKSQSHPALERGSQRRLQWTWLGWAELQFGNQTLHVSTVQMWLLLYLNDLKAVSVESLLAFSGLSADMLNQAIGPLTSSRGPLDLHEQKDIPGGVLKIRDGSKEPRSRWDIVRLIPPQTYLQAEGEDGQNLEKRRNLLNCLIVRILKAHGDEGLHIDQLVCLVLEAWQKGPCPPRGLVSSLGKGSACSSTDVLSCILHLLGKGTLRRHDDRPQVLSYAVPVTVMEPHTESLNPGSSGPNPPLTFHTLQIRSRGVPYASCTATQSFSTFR

T1: hemagglutinin (HA)-tagged RITA (RBP-J-interacting and tubulin-associated protein) (UniProt Q96K30)
T1 sequence: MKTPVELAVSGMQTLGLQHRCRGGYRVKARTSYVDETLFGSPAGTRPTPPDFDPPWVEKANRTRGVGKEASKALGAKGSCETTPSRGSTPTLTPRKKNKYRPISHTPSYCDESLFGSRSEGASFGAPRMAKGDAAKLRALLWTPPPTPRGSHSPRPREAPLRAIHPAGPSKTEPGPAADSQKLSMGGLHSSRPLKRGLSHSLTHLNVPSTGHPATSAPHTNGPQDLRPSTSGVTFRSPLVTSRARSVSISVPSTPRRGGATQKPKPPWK

B1: lipoma-preferred partner (LPP), endogenous in HEK293 (protein, UniProt Q93052 1-612)
chain: MSHPSWLPPKSTGEPLGHVPARMETTHSFGNPSISVSTQQPPKKFAPVVAPKPKYNPYKQPGGEGDFLPPPPPPLDDSSALPSISGNFPPPPPLDEEAFKVQGNPGGKTLEERRSSLDAEIDSLTSILADLECSSPYKPRPPQSSTGSTASPPVSTPVTGHKRMVIPNQPPLTATKKSTLKPQPAPQAGPIPVAPIGTLKPQPQPVPASYTTASTSSRPTFNVQVKSAQPSPHYMAAPSSGQIYGSGPQGYNTQPVPVSGQCPPPSTRGGMDYAYIPPPGLQPEPGYGYAPNQGRYYEGYYAAGPGYGGRNDSDPTYGQQGHPNTWKREPGYTPPGAGNQNPPGMYPVTGPKKTYITDPVSAPCAPPLQPKGGHSGQLGPSSVAPSFRPEDELEHLTKKMLYDMENPPADEYFGRCARCGENVVGEGTGCTAMDQVFHVDCFTCIICNNKLRGQPFYAVEKKAYCEPCYINTLEQCNVCSKPIMERILRATGKAYHPHCFTCVMCHRSLDGIPFTVDAGGLIHCIEDFHKKFAPRCSVCKEPIMPAPGQEETVRIVALDRDFHVHCYRCEDCGGLLSEGDNQGCYPLDGHILCKTCNSARIRVLTAKASTDL

The molecules below were run against T1, hemagglutinin (HA)-tagged RITA (RBP-J-interacting and tubulin-associated protein) (assay: affinity purification with mass spectrometry; HEK293 cells transfected with HA-tagged RITA; anti-HA IP of lysates, HA peptide elution, LC-MS/MS on trypsinized immune complexes; CompPASS scoring (HCIP here: APSM >= 5 and WD^N >= 3)).
RBP-J (from UniProt Q06330 1-500) was tested, and the binding was “binds”.
For α-actinin 1 (from UniProt P12814 1-892), the binding was “binds”.
With tubulin α1C (from UniProt Q9BQE3 1-449) the binding was “binds”.
tubulin β3 (from UniProt Q13509 1-450) was tested, and the binding was “binds”.
In the case of Cul7 (from UniProt Q14999 1-1698), the binding is reported as “binds”.

Molecular target: T1, hemagglutinin (HA)-tagged RITA (RBP-J-interacting and tubulin-associated protein)
Assay: as above
Remark: another data set of the same source
For B1, the binding was “binds”.

Results are given in words; binding and its absence hold for the method and conditions named. Binding seen in cells or lysates may run through a third protein. These calls come from enrichment with a bait or labelling near it, and not all partners need be listed. Where a sequence is shown, tags or fusion partners need not be part of it.
